Results as given in PubChem BioAssay AID1117319 (Southern Research Institute, 2015).
Among all 260,000 compounds or so, about 1,500 (0.58%) were called active. The shares of active, inactive and inconclusive entries below differ from those in the screen.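 The calls were made as follows: active = inhibition above a set limit at one or more doses, reproduced on every date tested; inconclusive = results disagree between test dates, or hit never tested in dose response; inactive = the rest.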

Sequences of proteins named here, by UniProt entry; tags and fusion partners are left off. A change or cut given only in a name is not applied to a line headed by its entry.
UniProt P69720: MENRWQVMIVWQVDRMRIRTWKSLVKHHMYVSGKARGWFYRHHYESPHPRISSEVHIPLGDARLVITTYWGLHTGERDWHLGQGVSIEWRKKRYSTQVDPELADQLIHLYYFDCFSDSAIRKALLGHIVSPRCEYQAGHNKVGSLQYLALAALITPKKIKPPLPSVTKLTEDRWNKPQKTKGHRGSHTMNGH
UniProt P69721: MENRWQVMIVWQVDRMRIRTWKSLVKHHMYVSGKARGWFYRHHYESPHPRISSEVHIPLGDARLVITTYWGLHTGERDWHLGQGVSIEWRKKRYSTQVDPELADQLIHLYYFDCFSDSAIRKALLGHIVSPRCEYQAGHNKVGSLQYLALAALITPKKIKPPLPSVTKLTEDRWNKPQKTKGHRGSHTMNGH
UniProt P69722: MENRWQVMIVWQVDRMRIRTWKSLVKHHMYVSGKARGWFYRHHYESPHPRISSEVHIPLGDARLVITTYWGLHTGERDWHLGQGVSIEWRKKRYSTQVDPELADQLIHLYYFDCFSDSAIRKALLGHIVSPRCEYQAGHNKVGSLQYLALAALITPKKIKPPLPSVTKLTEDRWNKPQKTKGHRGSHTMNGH
UniProt P69723: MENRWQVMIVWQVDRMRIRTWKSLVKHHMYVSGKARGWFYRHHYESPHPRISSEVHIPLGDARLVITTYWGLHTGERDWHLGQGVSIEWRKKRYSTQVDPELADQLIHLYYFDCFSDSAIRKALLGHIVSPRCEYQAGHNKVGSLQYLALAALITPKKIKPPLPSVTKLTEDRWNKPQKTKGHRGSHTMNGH
UniProt Q9HC16: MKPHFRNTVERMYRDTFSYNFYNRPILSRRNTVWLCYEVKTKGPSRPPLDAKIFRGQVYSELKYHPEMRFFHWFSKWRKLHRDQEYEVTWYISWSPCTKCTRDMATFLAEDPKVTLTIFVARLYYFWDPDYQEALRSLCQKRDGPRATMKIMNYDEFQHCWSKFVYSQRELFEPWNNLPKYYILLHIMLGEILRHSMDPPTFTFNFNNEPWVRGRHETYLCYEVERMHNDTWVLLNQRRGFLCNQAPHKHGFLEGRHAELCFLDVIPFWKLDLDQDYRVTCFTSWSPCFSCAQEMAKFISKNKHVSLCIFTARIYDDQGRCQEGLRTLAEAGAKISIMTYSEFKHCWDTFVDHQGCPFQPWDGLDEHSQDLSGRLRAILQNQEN

Target: Virion infectivity factor (Human immunodeficiency virus type 1 group M subtype B (isolate BH10)) + Virion infectivity factor (Human immunodeficiency virus type 1 group M subtype B (isolate BRU/LAI)) + Virion infectivity factor (Human immunodeficiency virus type 1 group M subtype B (isolate PCV12)) + Virion infectivity factor (Human immunodeficiency virus type 1 group M subtype B (isolate HXB2)) + DNA dC->dU-editing enzyme APOBEC-3G (Homo sapiens) (UniProt P69720+P69721+P69722+P69723+Q9HC16)
Assay: inhibitors of Vif binding to APOBEC3G peptide, primary screen, biochemical, TR-FRET, GST-Vif 1-94, biotin-A3G peptide, dose response retest (AID 1117319);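 also: Vif residues 1-94 fused to GST binding biotinylated APOBEC3G peptide 110-148; 0% = full assay without inhibitor and 100% = GST in place of GST-Vif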
Details: hits give high values

Structure (SMILES) | inhibition
O=S(=O)(c1cccc(-c2cn3cc(Cl)ccc3n2)c1)N1CCOCC1 | inconclusive: 55.6%
CC(=O)Nc1nonc1-c1nc2ccccc2n1CCC(C)C | inconclusive: 49.2%
COc1ccccc1NC(=O)CN(Cc1ccco1)C(=O)c1cccs1 | inconclusive: 64.5%
Cc1ccc(C(C(=O)Nc2ccc3c(c2)OCO3)N(C)C(=O)/C=C\c2ccc3c(c2)OCO3)cc1 (centres undefined) | inconclusive: 50.6%
COC(=O)CSc1nnc(NC(=O)/C=C\c2ccc3c(c2)OCO3)s1 | inconclusive: 41.3%
COc1cc(OC)c(C2N(c3ccc(Cl)c(Cl)c3)C(=O)C3CCCN32)cc1OC (centres undefined) | inconclusive: 39.9%
Oc1ccccc1N=Cc1ccc[nH]1 | inconclusive: 41.5%
Cc1ccc(N2C(=O)c3ccccc3C2Nc2ccccc2F)nc1 (centres undefined) | inconclusive: -4%
CCC(SC1=Nc2ccccc2C2=NC(CC(C)C)C(=O)N12)C(=O)Nc1ccc2c(c1)OCO2 (centres undefined) | inconclusive: 52.4%
Cc1cc2c(NC(=O)Nc3ccc(C(F)(F)F)cc3)cccc2nn1 | inconclusive: 59.4%
CCCC(C)C(=O)Nc1cc([N+](=O)[O-])ccc1Cl (centres undefined) | inconclusive: 55.7%
Cc1ccc(-n2c(=O)c3sccc3n(CC(=O)N3CCCC3)c2=O)cc1 | inconclusive: 42.4%
COc1cc(/C=C(/C#N)c2ccccc2)ccc1Oc1ccc([N+](=O)[O-])cn1 | inconclusive: 35.6%
Cc1ccc2c(CC(=O)OCc3nc(N)nc(Nc4ccccc4C)n3)coc2c1 | inconclusive: 53.4%
O=C(NCC(=O)N(Cc1cccs1)C(C(=O)NC1CCCCC1)c1ccncc1)c1ccco1 (centres undefined) | inconclusive: 35.3%
Nc1nnc(SCC(=O)N2CCN(c3cccc(Cl)c3)CC2)n1-c1ccccc1 | inconclusive: 35.5%
O=C(Nc1ccc(F)c(F)c1)c1ccc(F)c(S(=O)(=O)N2CCOCC2)c1 | inconclusive: 34%
CCc1ccc(Nc2ncc3c(n2)CC(C)(C)CC3=O)cc1 | inconclusive: 36.9%
Cc1ccc(C(O)(C(=O)NNS(=O)(=O)c2ccc(C)cc2)c2ccc(C)cc2)cc1 | inconclusive: 39.2%
O=C(CN1CCCCC1)Nc1ccc(F)c(Cl)c1 | inconclusive: 36.3%
C=CCn1c(SCC(=O)c2cc(C)n(CCOC)c2C)nc2sc(C)c(C)c2c1=O | inconclusive: 33.9%
Cn1ncc([N+](=O)[O-])c1C(=O)N/N=C/c1c[nH]c2ccccc12 | inconclusive: 35.2%
Cc1ccc(-c2csc3nc(C)n(N)c(=O)c23)cc1 | inconclusive: 38.5%

Shown as comma-separated lines: entries from further up.
Structure (SMILES),inhibition
COc1cc(OC)c(C2N(c3ccc(Cl)c(Cl)c3)C(=O)C3CCCN32)cc1OC (centres undefined),inconclusive: 39.9%
COc1cc(/C=C(/C#N)c2ccccc2)ccc1Oc1ccc([N+](=O)[O-])cn1,inconclusive: 35.6%
Cc1ccc2c(CC(=O)OCc3nc(N)nc(Nc4ccccc4C)n3)coc2c1,inconclusive: 53.4%

Following part:

Structure (SMILES) | inhibition
COc1cccc2[nH]c3c(N4CCC(C)CC4)ncnc3c12 | inconclusive: 43.9%
O=C(O)c1ccc2c(c1)C(=O)N(Cc1ccc3c(c1)OCO3)C2=O | inconclusive: 58.5%
Cc1ccccc1N1CCN(Cc2c(C#N)c3ccccc3n2C)CC1 | inconclusive: 33.1%
Cn1c(=O)c2cc(S(=O)(=O)NCCC(=O)NCCc3ccc(Cl)cc3)ccc2n(C)c1=O | inconclusive: 39.9%
O=C1OC2(CCCCC2)OC(=O)C1=CNc1ccc2c(c1)OCO2 | inconclusive: 51.8%
COc1cnc(-c2ccccn2)nc1Sc1c(Cl)cccc1Cl | inconclusive: 33.8%
CCC(C(=O)OCC(=O)Nc1cc(Cl)ccc1Cl)c1ccccc1 (centres undefined) | inconclusive: 40.1%
COC(=O)[C@@]1(Cc2ccc(F)cc2)[C@H]2c3cc(C(=O)N4CCCC4)n(CCc4ccccn4)c3C[C@H]2CN1C(=O)c1ccccc1 | inconclusive: 41.5%
Cc1ccc(S(=O)(=O)NN)c(C)c1N1CCCC1=O | inconclusive: 37.3%
COc1ccc(CNC(=O)c2nnn(-c3cccc(C(F)(F)F)c3)c2N)cc1 | inconclusive: 45.3%
Cc1nc(C)n(CC(O)COc2ccc(C(=O)c3ccccc3)cc2)n1 (centres undefined) | inactive: 11.5%
Cc1ccc(CN2CCN(CCCc3ccccc3)CC2CCO)cc1 (centres undefined) | inconclusive: 38.9%
O=C(NC1CC1)C1CCN(C2CCN(C(=O)CSc3ccccc3)CC2)CC1 | inconclusive: 58%
CC(=C\c1ccccc1)/C=C1/SC(=O)N(CCCC(=O)Nc2ccc(C(=O)O)cc2)C1=O | inactive: 0.71%
O=C(O)c1cnn2c(C(F)(F)F)cc(-c3ccco3)nc12 | inactive: 23%
COC(=O)c1ccc(/C=C(\C#N)c2nc3ccccc3s2)cc1 | inconclusive: 35.7%
CCCS(=O)(=O)N1CCN(C(=O)COc2ccc(OC)cc2)CC1 | inconclusive: 44.9%
Cc1c2cnn(-c3ccccc3)c(=O)c2c(C)n1CCCC(=O)N1CCN(C2CCCCC2)CC1 | inconclusive: 55.3%
COCCNC(=O)CSc1nc(N)c(NC(=O)c2ccccc2F)c(=O)[nH]1 | inconclusive: 36%
CC(=O)N1CCc2c(sc(NC(=O)CN3C(=O)CCC3=O)c2C(N)=O)C1 | inconclusive: 55.5%
CN1CCN(C(=O)CNc2ccc(C(F)(F)F)cc2[N+](=O)[O-])CC1 | inconclusive: 44.4%
Cc1cccc(OCc2n[nH]c(=S)o2)c1 | inconclusive: 34.4%
Cc1cc(C(=O)COC(=O)c2n[nH]c3ccccc23)c(C)n1CC1CCCO1 (centres undefined) | inconclusive: 35.6%

Structure (SMILES) | inhibition
COC(=O)COc1ccc2c(c1)O/C(=C\c1ccco1)C2=O | inactive: 24%
CCOc1ccc(Br)cc1S(=O)(=O)Nc1cccc(S(=O)(=O)NC2=NCCC2)c1 | inconclusive: 41.8%
Cc1ccc(F)cc1NC(=O)N1CCCN(C(=O)OC(C)(C)C)CC1 | inconclusive: 37.5%
CCn1c(NN)nc2sc3c(c2c1=O)CCC3 | inconclusive: 55.4%
O=C(Nc1cc2c3c(c1)C1CCCC1CN3CC1CCCC21)c1ccc([N+](=O)[O-])cc1 (centres undefined) | inconclusive: 29.8%
CC(=O)Nc1c(C(=O)N2CCOCC2)sc2nc3c(cc12)COC(C)(C)C3 | inconclusive: 12.4%
COc1cc(/C=N/O)ccc1OCc1ccc(C(=O)O)cc1 | inconclusive: 44.8%
CCOC(=O)C[n+]1c(C)sc2ccc(OC)cc21 | inconclusive: 62.6%
COc1cc(OC)cc(-c2nc(=S)n3ccsc3n2)c1 | inconclusive: 47.3%
COc1ccc(C(=O)NCc2nnc(SCC(=O)Nc3nc4ccccc4s3)o2)cc1OC | inactive: 0.33%
CC[n+]1c(/C=C/C=C/N(C(C)=O)c2ccccc2)sc2cc(OC)ccc21 | inconclusive: 40.2%
[O-]/[N+](=C/c1ccc(F)cc1)c1ccc(Cl)cc1 | inconclusive: 43.8%
O=Cc1cccn1-c1ccc2ccccc2c1 | inactive: -0.71%
CC(C)NC(=O)NC(=O)COC(=O)Cc1ccsc1 | inconclusive: 39.2%
O=C(COC(=O)c1ccc(O)cc1O)c1ccc2c(c1)OCO2 | inconclusive: 38%
O=C(COC(=O)c1ccco1)NCc1ccco1 | inconclusive: 11.6%
O=C(NC(NC(=S)Nc1cc(Cl)ccc1Cl)C(Cl)(Cl)Cl)c1ccco1 (centres undefined) | inconclusive: 41%
O=C(Nc1ccccc1)Nc1ccccc1NS(=O)(=O)c1cccs1 | inconclusive: 45.3%
O=C1CN(C(=O)c2c(F)cccc2F)C(c2ccccc2)c2cc(Br)ccc2N1 (centres undefined) | inactive: -0.06%
CCOc1nc(CC)nc(NC(=O)NS(=O)(=O)c2ccccc2Cl)n1 | inconclusive: 33%
COc1ccccc1OCCN1C(=O)S/C(=C\c2ccco2)C1=O | inconclusive: 37.5%
COc1ccccc1C(C)NS(=O)(=O)c1cccs1 (centres undefined) | inconclusive: 47%
O=C(CCS(=O)(=O)Cc1ccc(Cl)cc1)NCCCN1CCN(c2ccccc2F)CC1 | inconclusive: 42.7%

Structure (SMILES) | inhibition
COc1ccccc1C(=O)NCC(=O)OCc1ccc(Br)cc1 | inconclusive: 35.9%
CS(=O)(=O)N(CC(=O)N1CCN(Cc2ccccc2)CC1)Cc1ccccc1 | inconclusive: 49.5%
CN1c2ccccc2N(C)C1(C)c1cccc2ccccc12 | inconclusive: 64.3%
CCC1=C(C(=O)OC)C(c2cc(OC)ccc2OC)C(C#N)=C(N)O1 (centres undefined) | inconclusive: 34.1%
S=c1[nH]nc(Cc2sc(-c3ccccc3)nc2-c2ccccc2)o1 | inconclusive: 51.1%
Cc1cc(C(=O)CSc2nn3c(=O)c(C(C)(C)C)nnc3s2)c(C)n1C | inconclusive: 35.1%
CC1CN(CCCOc2ccccc2[N+](=O)[O-])CC(C)O1 (centres undefined) | inconclusive: 19.5%
O=C(NC(=S)N1CCCCCC1)c1ccc(Cl)cc1Cl | inconclusive: 49.2%
O=C1CC(c2ccccc2)CC(O)=C1C=Nc1ccccc1Cl (centres undefined) | inactive: -5.59%
CC(=O)Nc1ccc(OCC(O)CN2CCN(c3ccc(Cl)cc3)CC2)cc1 (centres undefined) | inactive: 22.8%
CC1Cc2ccccc2N1CC(=O)NC(=O)NCc1ccco1 (centres undefined) | inconclusive: 42.8%
COc1cccc(NC(=O)Cn2c3ccccc3c3nc4n(c(=O)c32)CCS4)c1 | inconclusive: 56.9%
CN(C)c1c(F)cc(C(=O)NCc2ccccc2)cc1F | inconclusive: 36.5%
Cc1cccc(-n2c(=O)[nH]c3c(C(N)=O)nc(C(C)C)nc32)c1 | inconclusive: 37.9%
COCC(=O)NNC(=O)Cc1ccc(Cl)cc1 | inconclusive: 51.4%
CCOC(=O)c1cc(-c2ccccc2)sc1NC(=O)C(C)(C)C | inconclusive: 58.4%
CCNc1ccc(Br)cc(C(=O)/C=C/c2ccc(Cl)cc2Cl)c1=O | inconclusive: 54.9%
Cn1ccs/c1=N\S(=O)(=O)c1ccc(C(C)(C)C)cc1 | inconclusive: 37.4%
OCCC1CN(Cc2nc(-c3ccccc3)cs2)CCN1C1CCCC1 (centres undefined) | inconclusive: 38.3%
CCOc1ccccc1NC(=O)Nc1cccc(NC(C)=O)c1 | inconclusive: 39.7%
